# These are yes or no findings as the source states them, for the method shown. A result given as binding can be weak or reduced; the word gives no strength. For part of these data: In cells and extracts the contact can be indirect. For part of these data: Sequences can lack the tags named with a protein.
# By UniProt entry, the sequences of proteins in these tests, tags left out. Where a name states a change or a piece, a line headed by the entry shows the natural chain unless it says otherwise.
# UniProt P29295: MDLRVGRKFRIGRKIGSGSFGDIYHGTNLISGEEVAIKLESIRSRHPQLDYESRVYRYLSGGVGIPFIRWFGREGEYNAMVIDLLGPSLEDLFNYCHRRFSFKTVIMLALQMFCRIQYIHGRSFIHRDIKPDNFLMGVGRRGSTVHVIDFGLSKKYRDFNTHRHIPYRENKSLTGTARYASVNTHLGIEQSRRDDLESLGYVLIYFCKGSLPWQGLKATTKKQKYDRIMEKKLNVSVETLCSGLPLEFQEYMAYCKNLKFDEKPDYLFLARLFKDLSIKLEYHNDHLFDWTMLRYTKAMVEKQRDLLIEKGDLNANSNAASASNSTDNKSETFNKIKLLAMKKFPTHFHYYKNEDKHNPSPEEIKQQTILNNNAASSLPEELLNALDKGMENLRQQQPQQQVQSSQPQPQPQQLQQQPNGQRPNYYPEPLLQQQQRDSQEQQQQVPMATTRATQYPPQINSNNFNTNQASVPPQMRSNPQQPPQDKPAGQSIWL
# B1: Kti12-HA6 (natural protein, S. cerevisiae, UniProt P34253 1-313, looked up)
# chain: MPLVLFTGYPCSGKTTLAKHLVQLLQSKIDATPSLSKYSITYHSDESLGIKHSDYITSQDERKLRSEIISAVKRDLSKNKIVIVDSLNYIKGFRYQLHCEVKNLSTTFCVIQTLCPPETIFEWNKTSNPNPWEPELLNQLIQRYEEPNSSNRWDSPLFAILTPQDNITDYIDDICKVVFQTSKSAKNSGHNDPLSKGLQKPNSATVLKPASQSNFIQVLDIETSKIIKTIMNHIKSLTSIGGVSNGTRVIVSEGITDINDDGCFFVDLPIGNVVTLAQLQRLKRQFINFNKLRDIDQDRIGPLFADYLNKNLN
# notes: Kti12, accessory protein of Elongator, S. cerevisiae; also called HA-tagged Kti12; source: S. cerevisiae KTI12-HA6 strains, in cell extract
# Key:
# [1] = molecular target: T1, Elp3-TAP (S. cerevisiae) (UniProt Q02908); experiment: tandem affinity purification with Western blot; Elongator purified by Elp3-TAP from elp1Δ ELP3-TAP strains carrying ELP1-6HA alleles; Western blot for Elp3-TAP and Elp1-6HA
# T1 sequence: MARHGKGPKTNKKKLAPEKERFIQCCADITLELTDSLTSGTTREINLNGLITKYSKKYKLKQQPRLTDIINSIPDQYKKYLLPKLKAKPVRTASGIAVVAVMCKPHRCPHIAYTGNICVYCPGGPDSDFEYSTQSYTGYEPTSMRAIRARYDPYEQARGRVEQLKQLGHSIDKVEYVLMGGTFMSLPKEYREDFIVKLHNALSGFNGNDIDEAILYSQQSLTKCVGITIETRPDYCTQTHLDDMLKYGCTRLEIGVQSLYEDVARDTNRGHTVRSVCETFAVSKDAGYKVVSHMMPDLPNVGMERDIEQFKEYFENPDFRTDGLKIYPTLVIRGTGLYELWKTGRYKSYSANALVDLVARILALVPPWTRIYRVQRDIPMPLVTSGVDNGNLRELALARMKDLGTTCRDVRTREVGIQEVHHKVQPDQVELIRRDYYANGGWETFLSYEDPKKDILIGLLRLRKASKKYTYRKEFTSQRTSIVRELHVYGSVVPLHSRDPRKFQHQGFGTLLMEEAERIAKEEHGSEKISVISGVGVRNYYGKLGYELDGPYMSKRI
# [2] = molecular target: T2, Elp1-HA (S. cerevisiae) (UniProt Q06706); experiment: co-IP; Elp1-HA immunoprecipitated from extracts of HRR25 and hrr25-2 strains; Western blot with anti-HA, anti-myc and anti-Hrr25; untagged ELP1 as control
# T2 sequence: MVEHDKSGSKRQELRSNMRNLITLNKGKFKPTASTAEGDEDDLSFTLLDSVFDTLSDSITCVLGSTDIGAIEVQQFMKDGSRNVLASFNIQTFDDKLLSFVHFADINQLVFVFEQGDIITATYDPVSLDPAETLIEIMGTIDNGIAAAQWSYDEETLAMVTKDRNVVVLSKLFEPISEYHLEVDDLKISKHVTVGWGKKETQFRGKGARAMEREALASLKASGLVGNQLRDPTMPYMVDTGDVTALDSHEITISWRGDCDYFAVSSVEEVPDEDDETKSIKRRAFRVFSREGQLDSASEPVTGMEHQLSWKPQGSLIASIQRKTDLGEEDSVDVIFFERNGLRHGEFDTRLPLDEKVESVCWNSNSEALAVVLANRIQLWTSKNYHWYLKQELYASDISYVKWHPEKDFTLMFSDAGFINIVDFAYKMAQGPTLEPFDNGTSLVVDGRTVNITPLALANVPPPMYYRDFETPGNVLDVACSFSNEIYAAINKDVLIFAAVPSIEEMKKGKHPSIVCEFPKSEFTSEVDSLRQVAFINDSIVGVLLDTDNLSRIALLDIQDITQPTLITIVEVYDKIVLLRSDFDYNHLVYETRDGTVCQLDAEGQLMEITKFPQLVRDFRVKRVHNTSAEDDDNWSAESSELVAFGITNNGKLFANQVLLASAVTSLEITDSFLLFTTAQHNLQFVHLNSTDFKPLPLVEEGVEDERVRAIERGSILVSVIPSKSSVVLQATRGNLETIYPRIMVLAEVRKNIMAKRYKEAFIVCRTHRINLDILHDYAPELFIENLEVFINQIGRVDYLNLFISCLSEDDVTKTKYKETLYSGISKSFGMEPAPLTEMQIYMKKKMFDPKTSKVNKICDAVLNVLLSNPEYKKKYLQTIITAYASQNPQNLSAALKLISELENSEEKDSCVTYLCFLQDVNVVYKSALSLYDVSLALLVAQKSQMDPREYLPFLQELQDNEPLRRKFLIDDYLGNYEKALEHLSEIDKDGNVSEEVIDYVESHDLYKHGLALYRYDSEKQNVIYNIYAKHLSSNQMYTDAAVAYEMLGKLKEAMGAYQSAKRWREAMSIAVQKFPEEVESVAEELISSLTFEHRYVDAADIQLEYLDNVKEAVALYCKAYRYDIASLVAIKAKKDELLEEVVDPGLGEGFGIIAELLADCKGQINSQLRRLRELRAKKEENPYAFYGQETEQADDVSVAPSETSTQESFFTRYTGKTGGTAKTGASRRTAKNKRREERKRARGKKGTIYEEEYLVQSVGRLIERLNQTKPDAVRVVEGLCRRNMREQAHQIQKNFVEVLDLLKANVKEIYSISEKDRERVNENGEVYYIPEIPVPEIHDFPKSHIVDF
# [3] = molecular target: Elp1-KR9A-GFP (S. cerevisiae) (UniProt Q06706); experiment: co-IP; GFP-tagged Elp1 (genomic locus) precipitated with GFP-trap from yeast extracts; Western blot with anti-GFP and anti-HA; densitometry of Kti12-HA normalised to Elp1-GFP, wild type set to 1.0
molecule,measurement,setting,value
Elp1 in which the C-terminal region had been deleted (6HA-tagged) (S. cerevisiae) (domain or fragment),binding,[1],binds
Hrr25 of the hrr25-2 mutant strain (from UniProt P29295) (enzyme),binding,[2],binds
B1,binding,[3],binds
